Data as given in publication PMC10163288.
Some of the results follow.

B1: il10ra_site1_sap_19_mot_HHH_b2_03425_000000200_0001_22_39_H_._HHH_b1_06430_0001_0000100004_0000001_0_0001_af2pred_dldesign_0_af2pred (protein)
chain: SSSSDIEALLKELARLSHEVSEEQRAKLFDAMVEAYRLYQQGKPEEARRVLEEAIAEALESSSSS
B2: il10ra_site1_normal_mot_HHH_b2_07540_000000184_0001_1_15_H_._HHH_b2_02537_0001_0000100004_0000001_0 (protein)
chain: SSSSDEEYEEVKRLIEEITELLRRGDPEEARRLLEELEELAEETNNPAARFSVRALERAINSSSS
B3: il10ra_site1_normal_mot_HHH_b2_00984_000000042_0001_1_20_H_._ems_p1-15H-GBL-16H-GABBL-16H_0120_0001_0001_0001_0001_0000500019_0000002_0 (protein)
chain: SSSSSDVARLAAEAARLAFRKGDQEALRELWELIQAYARGEQPEEEVEEIVEEILERLRSSSSSS
B4: il10ra_site1_sap_8_mot_HHH_b1_07768_000000240_0001_18_35_H_._HHH_b1_06381_af2_0001_0000300007_0000002_0_0001 (protein)
chain: SSSSSEDNEELFELSKRAAELASEGNPEEARRLLEEAEELAEEAGNMLFLWQIRFLLKRISSSSS
B5: il10ra_site1_sap_13_mot_HHH_b2_07596_000000080_0001_23_39_H_._HHH_b1_03720_0001_0000200022_0000001_0_0001_af2pred_dldesign_0_af2pred (protein)
chain: SSSSSDPALRARVEALLEEARKLKDPEKAAEVLREASRLAWELGDSELFERIKEVANELLSSSSS
B6: il10ra_site1_sap_20_mot_HHH_b1_02997_000000220_0001_39_52_H_._HHH_b1_01700_0001_0000400036_0000002_0_0001 (protein)
chain: SSSSDEARRELFELSRRAAEALANGNPEEARKILEEAEELAEELGDRVVLFSIRHLLKAVNSSSS
B7: il10ra_site1_normal_mot_HHH_b1_00456_000000263_0001_1_17_H_._ems_3hM_3122_af2_0001_0000100004_0000001_0_af2pred_0001 (protein)
chain: SSSAAEVWHILVRAYTLALRLNDEELREEVKEVAQEVTELLLEGDEEEARRLAEELLERVEKKSS
B8: il10ra_site1_sap_20_mot_HHH_b1_06256_000000091_0001_42_58_H_._HHH_b1_00504_0001_0000100004_0000002_0_0001 (protein)
chain: SSSSSEEERELEELIERAKELLERGNPQEAIEVLARAVRLAFELGDPEALHEIWELVERQKSSSS
B9: il10ra_site1_normal_mot_8756ee2cf497b5429c717dfc0c0bcfd6_0001_000000186_0001_1_13_H_._HHH_b2_04339_af2_0001_0000100002_0000002_0_af2pred_0001 (protein)
chain: SSSSSDLEELVKLLRRIIELLADGNPEEAEELAEEALKLAEELNNEVARAILEFLRERAGSSSSS
B10: il10ra_site1_normal_mot_HHH_b1_05860_000000142_0001_1_19_H_._HHH_b2_03301_0001_0000100010_0000002_0_af2pred_0001 (protein)
chain: SSSSSERERVVKLLREAAELLRKGNPEEAREVLEEARELIEEAGNEVFEFILRLLERDLESSSSS
B11: il10ra_site1_sap_28_mot_HHH_b2_00441_000000147_0001_1_18_H_._HHH_b2_05319_0001_0000200013_0000001_0_0001 (protein)
chain: TVEHVLRKFAEAAVKGDESAQRILKVIVELAKTDPQYRQALERLIEILEELGDPELAEELEELLK
B12: il10ra_site1_normal_mot_HHH_b2_04912_000000028_0001_1_20_H_._HHH_b2_01396_0001_0000200033_0000001_0 (protein)
chain: SSSSDHEEVLELVLEALRLALRGDPEEAEKVLEEVLRLAEELGDEKLVEIIRDLLEALRDGSSSS
B13: il10ra_site1_normal_mot_7d538683ae38ff56261eb02f12605454_0001_af2_000000062_0001_54_65_H_._HHH_b1_06236_0001_0000100010_0000001_0 (protein)
chain: SSSSSEEEEEAEELLIEVAELFISGNPEEARRLLEEVRELVEKIGDPHLRAAVRIYEDAIKSSSS
B14: il10ra_site1_normal_mot_HHH_b2_06857_af2_000000179_0001_42_54_H_._HHH_b1_07795_af2_0001_0000100003_0000001_0_af2pred_dldesign_0_af2pred (protein)
chain: SSSSSDIEKVVKLIKEMAELASEGKKEEFEKTYNEALALAKKLGDEILVYTIEYLKERGLSSSSS
B15: il10ra_site1_sap_28_mot_HHH_b2_06311_000000217_0001_1_16_H_._HHH_b2_07909_af2_0001_0000600027_0000001_0_0001 (protein)
chain: SSSSSDAHELFELSREAAELARTDPEKAEEVLEEAIEIAERAGNQNFLVNLRYLLRRIENSSSSS
B16: il10ra_site1_sap_24_mot_HHH_b1_00999_000000080_0001_41_55_H_._HHH_b1_08417_0001_0000300009_0000002_0_0001_af2pred_0001 (protein)
chain: SSSDDEEELRLAAEIVARLILEFNLTQEQAVELLRVAYELLRRGVSEEEIEEILKEVAEELGSSS
B17: il10ra_site1_sap_25_mot_HHH_b1_07286_af2_000000054_0001_1_19_H_._HHH_b2_06366_0001_0000400028_0000001_0_0001_af2pred_0001 (protein)
chain: SSSSSSEEVREILRLLREAHEIDDPEEREEVLEEAQRLAEEAGNELLLFVIEYLLEIVRQSSSSS
B18: il10ra_site1_normal_mot_HHH_b1_00999_000000080_0001_41_55_H_._HHH_b1_08027_af2_0001_0000500028_0000003_0 (protein)
chain: SSSSSEEELEELEKQVEKLIEEGNLEEALRVIAEAVQLAMELGDQETLQELWRLVQRIGRLSSSS
B19: il10ra_site1_normal_mot_HHH_b2_04912_000000028_0001_1_20_H_._HHH_b2_06521_af2_0001_0000400041_0000001_0 (protein)
chain: SSSSSDEQEELLELLIRAFRLALRGNPEEARELLEEAEHLAEKLGDERARENVEELLQALSSSSS
B20: il10ra_site1_sap_20_mot_HHH_b2_07579_000000275_0001_1_19_H_._HHH_b2_06655_0001_0000100003_0000001_0_0001 (protein)
chain: SSSDERERVWELLKKALELLARGDKEEAEEVVKEAEEIAEEGGDMVLLVVIRFLLEQIRRQSSSS
B21: il10ra_site1_sap_22_mot_HHH_b2_06321_af2_000000133_0001_42_55_H_._HHH_b1_02534_af2_0001_0000800018_0000002_0_0001 (protein)
chain: SSSSDEETQRAMELVERASEADQRGDEEEVRELLEEALELAEEGNNWALQFAIRMILERLNSSSS
B22: il10ra_site1_sap_22_mot_HHH_b2_08186_000000021_0001_43_56_H_._HHH_b2_02553_0001_0000400018_0000001_0_0001 (protein)
chain: SSSSSDLEEAVEELLEEARHIEDPDERYKVLEEAIEVAHEAGDPELARLIMEFLREMVQGSSSSS
B23: il10ra_site1_normal_mot_HHH_b1_04065_000000255_0001_41_56_H_._HHH_b2_01603_0001_0000200013_0000001_0_af2pred_0001 (protein)
chain: SSSSSNDEEAAHIFIEALRLAHELGDEETFREVIQLAVKYFREGDPRYLEEVEELLEELRSSSSS
B24: il10ra_site1_sap_19_mot_HHH_b2_07521_000000141_0001_20_37_H_._HHH_b2_07882_0001_0000300023_0000001_0_0001 (protein)
chain: SSSSSDVEEYVRQAARFIRALLEAGNPEAARSLLRALEDIAKKHNDEEAEEIVKELEELLSSSSS
B25: il10ra_site1_normal_mot_HHH_b1_05865_af2_000000211_0001_1_17_H_._HHH_b2_08125_0001_0000300030_0000001_0 (protein)
chain: SSSSSSDIEEEVEELLERAERVSEEEAFELLVEALRLAFKAGNDELLKEIWEFYKRLRSSSSSSS
B26: il10ra_site1_sap_11_mot_HHH_b1_05860_000000142_0001_1_19_H_._HHH_b2_01378_0001_0000400028_0000002_0_0001 (protein)
chain: SSSSSEEEELVRAAREIARQAYENGNPEEARYLLEALLENLEKEGNEELVEEVRELLEELSSSSS
B27: il10ra_site1_normal_mot_HEEHE_1605_000000211_0001_40_56_H_._544ef0e38e907b7890d4414ebae48784_0001_1_0001_0000100003_0000001_0_af2pred_dldesign_0_af2pred (protein)
chain: SKEELLERLAELLGLAPETVKYALEQLTAQTGDPDAAIDAFLAGLELSGRLTPEVAALLARLREE
B28: il10ra_site1_sap_19_mot_HHH_b1_05214_000000232_0001_38_57_H_._HHH_b2_00758_0001_0000400024_0000001_0_0001 (protein)
chain: SSSSDIRELYELSREAVELRHEGNPEEAEKVVEEAEELARELNNRVLLAVIEWLREAIETSSSSS
B29: il10ra_site1_normal_mot_HHH_b2_03220_af2_000000223_0001_23_40_H_._HHH_b2_04195_af2_0001_0000100007_0000001_0 (protein)
chain: SSSSTEREEVWELLRRALELLANGNPEEAEKLLEEARRIAEELNSELFEFAIRLLERDVEISSSS
B30: il10ra_site1_normal_mot_HHH_b2_00277_af2_000000172_0001_1_17_H_._HHH_b2_05985_0001_0000200017_0000002_0_af2pred_0001 (protein)
chain: SSSSDEERLEELLRILEELVKKNDEEEFKEVYKEAAEIAAKLRDLEASHKLTELFALLTNSSSSS
B31: il10ra_site1_normal_mot_HHH_b1_04065_000000255_0001_41_56_H_._HHH_b2_04118_0001_0000500025_0000001_0 (protein)
chain: SSSSSSEEEERVEELLEEAKHIEDPKERSHVLLRASRIAYELRDQELLRLIDKVAIELYSSSSSS
B32: il10ra_site1_sap_16_mot_HHH_b2_05401_af2_000000143_0001_1_14_H_._7b9e6e68400ffa30f527534e580da0a7_0001_1_af2_0001_0000100003_0000001_0_0001 (protein)
chain: SSSSDEEKRVAELLHQAMEAYKNKDEERLEELLEEIRRLAEELNNPLLEWLVRLLEEALKNSSSS
B33: il10ra_site1_normal_mot_HHH_b1_00682_000000211_0001_1_20_H_._HHH_b1_08465_0001_0000200010_0000001_0_af2pred_0001 (protein)
chain: SSSSDLEERVEELLERAEELYEKGNPEEAVRLIREAIELVSKNNNDELIELVREVSRRLSDSSSS
B34: il10ra_site1_normal_mot_7d538683ae38ff56261eb02f12605454_0001_af2_000000062_0001_54_65_H_._HHH_b1_03177_0001_0000200008_0000001_0 (protein)
chain: SSSSDSQVIVEAAKLALRWAYEAGDPEHLEAILRIYREALKDAGDPEALEELEEFYEELESSSSS
B35: il10ra_site1_normal_mot_HHH_b1_02062_000000185_0001_1_20_H_._HHH_b1_04860_0001_0000300024_0000001_0_af2pred_0001 (protein)
chain: SSSSDELERVQELSREAAELLRKGDPEEAREVLEEARELAEELNNPVLRLIIEYLLKLIHSSSSS
B36: il10ra_site1_normal_mot_HHH_b2_04275_000000272_0001_20_36_H_._HHH_b2_04520_0001_0000100005_0000001_1 (protein)
chain: SSSSDETQELYKLLREIVELIHEGDDEEARRLLEEARELAEELGNDIVRAQLEFLERHLESSSSS
B37: il10ra_site1_sap_23_mot_HHH_b1_03531_000000273_0001_41_54_H_._HHH_b2_03953_0001_0000200015_0000001_0_0001 (protein)
chain: SSSSSSEEEERVEELEEEFHRVDSQEQYKIIKEIIELASESNDPRLFRVAHRLVRAFARSSSSSS

The binders below were run against il10ra, Q13651 (assay: yeast display titration).

Apparent Kd, inactive:
B1 no binding seen, B2 no binding seen, B3 no binding seen, B4 no binding seen, B5 no binding seen, B6 no binding seen, B7 no binding seen, B8 no binding seen, B9 no binding seen, B10 no binding seen, B11 no binding seen, B12 no binding seen, B13 no binding seen, B14 no binding seen, B15 no binding seen, B16 no binding seen, B17 no binding seen, B18 no binding seen, B19 no binding seen, B20 no binding seen, B21 no binding seen, B22 no binding seen, B23 no binding seen, B24 no binding seen, B25 no binding seen, B26 no binding seen, B27 no binding seen, B28 no binding seen, B29 no binding seen, B30 no binding seen, B31 no binding seen, B32 no binding seen, B33 no binding seen, B34 no binding seen, B35 no binding seen, B36 no binding seen, B37 no binding seen
